Some of the results follow.
Test: S. pneumoniae PMK inhibitor potency, dose response, biochemical, mevalonate pathway, coupling enzyme counter-screen (AID 549)
Conditions: PK/LDH coupled NADH absorbance 340 nm, measured here: coupling enzymes counter-screen (hexokinase)

Which IC50 does the source give for `O=P(Nc1nccs1)(c1ccccc1)c1nc2ccccc2s1` (stereo unspecified) here?
The IC50 was 58.7 µM.

Source: PubChem BioAssay AID549 (SRMLSC, 2006)
